No constants are given. Whether binding was seen depends on the method and setting. For some assays here: Binding seen in cells or lysates may run through a third protein. Some results given as binding are weak or reduced against the parent protein; the word gives no strength. Tags and fused reporters may be left off the sequences shown. One block for each binder: values may come before it.
Columns and labels:
[1] = target: T1, TRPC6 amino-terminal cytoplasmic domain (amino acids 1-406) fused to the Gal4 DNA-binding domain (human) (UniProt Q9Y210); assay: two-hybrid; directed test read by beta-galactosidase activity (data not shown)
T1 sequence: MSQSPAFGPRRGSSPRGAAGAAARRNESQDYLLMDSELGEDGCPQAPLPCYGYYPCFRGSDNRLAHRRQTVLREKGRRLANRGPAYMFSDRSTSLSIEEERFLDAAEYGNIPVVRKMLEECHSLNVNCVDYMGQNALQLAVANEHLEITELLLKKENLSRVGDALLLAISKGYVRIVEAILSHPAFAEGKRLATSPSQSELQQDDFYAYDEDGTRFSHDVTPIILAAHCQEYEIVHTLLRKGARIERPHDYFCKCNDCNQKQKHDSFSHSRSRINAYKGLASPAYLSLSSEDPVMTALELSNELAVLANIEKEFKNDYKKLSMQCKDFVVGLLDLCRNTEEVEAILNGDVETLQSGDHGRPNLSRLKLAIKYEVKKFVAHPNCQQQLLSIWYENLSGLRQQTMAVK

[2] = target: T2, TRPC6 amino acids 1-107 fused to the Gal4 DNA-binding domain (human) (UniProt Q9Y210); assay: two-hybrid; directed test: pGADT7-SNF8 in Y187 mated with AH109 carrying pGBKT7-TRPC6 constructs; growth on high stringency media SD-ade, his, leu, trp
T2 sequence: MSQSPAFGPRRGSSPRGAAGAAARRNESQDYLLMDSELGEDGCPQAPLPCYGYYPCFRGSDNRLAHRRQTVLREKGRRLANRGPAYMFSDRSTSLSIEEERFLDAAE

[3] = target: T1, TRPC6 amino-terminal cytoplasmic domain (amino acids 1-406) fused to the Gal4 DNA-binding domain (human); assay: as above
[4] = target: T3, FLAG-tagged TRPC6 (wild type) under a tetracycline inducible promoter (human) (UniProt Q9Y210); assay: co-IP; M1R cells with tetracycline-induced FLAG-TRPC6, transfected with HA-SNF8; with or without 100 uM carbachol for 5 minutes before lysis; modified RIPA lysis buffer; FLAG M2 agarose, 4 C, 2-3 hours; blot with anti-HA
T3 sequence: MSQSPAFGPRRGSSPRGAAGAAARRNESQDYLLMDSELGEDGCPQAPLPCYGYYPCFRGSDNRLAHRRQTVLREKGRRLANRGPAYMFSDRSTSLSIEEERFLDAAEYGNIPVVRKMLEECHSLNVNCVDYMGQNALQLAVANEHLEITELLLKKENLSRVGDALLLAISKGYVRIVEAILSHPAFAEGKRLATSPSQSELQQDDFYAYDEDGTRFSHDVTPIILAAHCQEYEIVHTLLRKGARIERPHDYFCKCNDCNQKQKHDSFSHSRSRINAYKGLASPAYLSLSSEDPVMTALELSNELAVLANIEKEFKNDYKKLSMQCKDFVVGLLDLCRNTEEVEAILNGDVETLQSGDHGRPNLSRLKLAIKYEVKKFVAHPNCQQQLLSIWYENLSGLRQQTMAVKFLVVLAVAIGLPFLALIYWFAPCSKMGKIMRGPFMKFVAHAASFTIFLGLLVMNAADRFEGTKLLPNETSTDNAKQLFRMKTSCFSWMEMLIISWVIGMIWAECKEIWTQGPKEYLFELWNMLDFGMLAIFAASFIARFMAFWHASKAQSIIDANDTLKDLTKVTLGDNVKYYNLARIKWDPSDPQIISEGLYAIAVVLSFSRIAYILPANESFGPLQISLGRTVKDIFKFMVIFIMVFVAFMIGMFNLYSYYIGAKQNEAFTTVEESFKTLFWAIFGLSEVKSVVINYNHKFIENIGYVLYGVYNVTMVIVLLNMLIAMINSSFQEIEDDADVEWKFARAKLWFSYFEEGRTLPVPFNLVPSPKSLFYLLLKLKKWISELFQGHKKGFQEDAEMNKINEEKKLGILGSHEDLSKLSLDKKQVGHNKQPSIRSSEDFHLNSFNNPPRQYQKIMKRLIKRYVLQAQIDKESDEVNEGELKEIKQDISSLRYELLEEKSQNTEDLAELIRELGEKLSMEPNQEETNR

[5] = target: T4, FLAG-TRPC6 107-931 (human) (UniProt Q9Y210); assay: co-IP; HEK 293T cells co-expressing full-length HA-TRPC6 and FLAG-tagged TRPC6 constructs; FLAG immunoprecipitation, blot for HA-TRPC6
T4 sequence: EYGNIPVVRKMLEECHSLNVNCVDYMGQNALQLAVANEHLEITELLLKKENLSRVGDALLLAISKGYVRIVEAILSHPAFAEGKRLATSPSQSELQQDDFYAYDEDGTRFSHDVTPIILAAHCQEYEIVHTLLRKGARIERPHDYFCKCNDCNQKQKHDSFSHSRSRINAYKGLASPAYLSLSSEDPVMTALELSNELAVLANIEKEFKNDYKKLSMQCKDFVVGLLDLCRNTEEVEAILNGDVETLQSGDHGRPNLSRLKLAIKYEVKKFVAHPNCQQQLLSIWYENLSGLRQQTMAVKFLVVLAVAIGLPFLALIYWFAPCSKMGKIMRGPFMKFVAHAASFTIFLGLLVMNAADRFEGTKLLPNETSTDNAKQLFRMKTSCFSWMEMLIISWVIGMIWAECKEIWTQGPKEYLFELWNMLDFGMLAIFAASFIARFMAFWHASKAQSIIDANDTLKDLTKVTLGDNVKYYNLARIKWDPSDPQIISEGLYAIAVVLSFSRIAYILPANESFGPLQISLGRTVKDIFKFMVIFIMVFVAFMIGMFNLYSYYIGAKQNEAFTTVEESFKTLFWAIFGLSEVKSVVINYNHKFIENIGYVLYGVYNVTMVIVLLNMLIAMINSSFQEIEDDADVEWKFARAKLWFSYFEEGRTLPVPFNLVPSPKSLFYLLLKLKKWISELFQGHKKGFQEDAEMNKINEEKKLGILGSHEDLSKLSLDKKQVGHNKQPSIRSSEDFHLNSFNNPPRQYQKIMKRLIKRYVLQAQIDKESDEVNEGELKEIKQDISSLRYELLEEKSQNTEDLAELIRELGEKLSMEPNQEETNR

binding [1]: binds
binding [2]: binds
binding [3]: binds
B1: Full-length SNF8 fused to the Gal4 activation domain (pGADT7-SNF8) (protein, UniProt Q96H20 1-258)
chain: MHRRGVGAGAIAKKKLAEAKYKERGTVLAEDQLAQMSKQLDMFKTNLEEFASKHKQEIRKNPEFRVQFQDMCATIGVDPLASGKGFWSEMLGVGDFYYELGVQIIEVCLALKHRNGGLITLEELHQQVLKGRGKFAQDVSQDDLIRAIKKLKALGTGFGIIPVGGTYLIQSVPAELNMDHTVVLQLAEKNGYVTVSEIKASLKWETERARQVLEHLLKEGLAWLDLQAPGEAHYWLPALFTDLYSQEITAEEAREALP

binding [4]: binds
B2: HA-tagged SNF8 (protein, UniProt Q96H20 1-258)
chain: B1 chain

binding [5]: binds
B3: Full-length HA-tagged TRPC6 (protein, UniProt Q9Y210 1-931)
chain: T3 sequence
